# This is one part of the list. Repeats are few or missing, and single values can be far off.
# Experiments:
# Conditions in all cases: RNA concentration 10 µM; fragment concentration 200 µM; 293 K
# [1] = test system: SARS-CoV-2 3'-UTR RNA; assay: T2 signal reduction relative to ligand without RNA (fraction); higher = stronger binding
# [2] = test system: SARS-CoV-2 3_SL3base RNA; assay: as above
# [3] = test system: SARS-CoV-2 5'-UTR RNA; assay: as above
# [4] = test system: SARS-CoV-2 5_SL5 RNA; assay: as above
# [5] = test system: SARS-CoV-2 5_SL7 RNA; assay: waterLOGSY factor (bound vs free ligand) (ratio); higher = stronger binding
# [6] = test system: SARS-CoV-2 5_SL5b+c RNA; assay: T2 signal reduction relative to ligand without RNA (fraction); higher = stronger binding
# [7] = test system: SARS-CoV-2 frameshift pseudoknot (PK) RNA; assay: waterLOGSY factor (bound vs free ligand) (ratio); higher = stronger binding
# [8] = test system: SARS-CoV-2 3_s2m RNA; assay: T2 signal reduction relative to ligand without RNA (fraction); higher = stronger binding
# [9] = test system: SARS-CoV-2 5_SL5stem RNA; assay: waterLOGSY factor (bound vs free ligand) (ratio); higher = stronger binding
# [10] = test system: SARS-CoV-2 5_SL5stem RNA; assay: T2 signal reduction relative to ligand without RNA (fraction); higher = stronger binding
# [11] = test system: SARS-CoV-2 3_SL1 RNA; assay: as above
# [12] = test system: SARS-CoV-2 3_SL1+2 RNA; assay: as above
# [13] = test system: SARS-CoV-2 5_SL6 RNA; assay: waterLOGSY factor (bound vs free ligand) (ratio); higher = stronger binding
# [14] = test system: SARS-CoV-2 5_SL6 RNA; assay: T2 signal reduction relative to ligand without RNA (fraction); higher = stronger binding
# [15] = test system: SARS-CoV-2 5_SL1 RNA; assay: as above
# [16] = test system: SARS-CoV-2 5_SL1234 RNA; assay: as above
# [17] = test system: SARS-CoV-2 5_SL4 RNA; assay: as above
# [18] = test system: SARS-CoV-2 5_SL8 RNA; assay: waterLOGSY factor (bound vs free ligand) (ratio); higher = stronger binding
# [19] = test system: SARS-CoV-2 3_SL2 RNA; assay: T2 signal reduction relative to ligand without RNA (fraction); higher = stronger binding
smiles,measurement,setting,value
COc1ccc(Nc2ncnc3[nH]cnc23)cc1,T2 signal reduction,[1],0.46
same,T2 signal reduction,[2],0.54
same,T2 signal reduction,[3],0.5
same,T2 signal reduction,[4],0.43
CCNCc1cccc2[nH]ccc12,T2 signal reduction,[3],0.38
Cc1ccc(-c2noc(CNC(C)C)n2)cc1,waterLOGSY factor,[5],0.746
same,T2 signal reduction,[1],0.39
same,T2 signal reduction,[2],0.52
same,T2 signal reduction,[4],0.82
Cc1ccccc1OCC(=O)Nc1ncccn1,T2 signal reduction,[3],0.2
CC(C)c1ccc(C(=O)Nc2nncs2)cc1,T2 signal reduction,[1],0.5
same,T2 signal reduction,[4],0.53
c1ccc(CCNc2nc3ccccc3[nH]2)cc1,T2 signal reduction,[1],0.48
same,T2 signal reduction,[3],0.73
CN1CCN(c2ccc(C#N)cc2)CC1,waterLOGSY factor,[5],1.52
same,T2 signal reduction,[1],0.28
COc1ccc(CN)cc1OC,T2 signal reduction,[6],0.24
Cc1cc(N2CCNCC2)nc(C)n1,T2 signal reduction,[3],0.7
OCc1ccc(-n2cnc3ccccc32)cc1,T2 signal reduction,[1],0.2
same,T2 signal reduction,[3],0.23
O=C(Nc1cccnc1)c1cnn2cccnc12,T2 signal reduction,[1],0.31
same,T2 signal reduction,[4],0.97
COc1ccc2[nH]cc(CN(C)C)c2c1,waterLOGSY factor,[5],0.787
same,T2 signal reduction,[3],0.4
c1nc(N2CCC2)c2[nH]cnc2n1,T2 signal reduction,[1],0.42
same,T2 signal reduction,[3],0.4
CC(=O)Nc1ccc(-c2csc(N)n2)cc1,T2 signal reduction,[1],0.5
same,T2 signal reduction,[3],0.69
same,T2 signal reduction,[4],0.78
O=C(Nc1ccccn1)c1cnccn1,T2 signal reduction,[3],0.51
same,T2 signal reduction,[4],0.38
CCCc1nnc(NC(=O)c2ccccn2)s1,T2 signal reduction,[3],0.86
c1ccc(NCC2CCNC2)nc1 (stereo not given),waterLOGSY factor,[5],0.897
same,waterLOGSY factor,[7],2.48
same,T2 signal reduction,[3],0.68
same,T2 signal reduction,[6],0.33
Cl.NCc1cc(-c2ccccc2)no1,waterLOGSY factor,[5],1.59
same,T2 signal reduction,[1],0.32
same,T2 signal reduction,[8],0.26
same,T2 signal reduction,[3],0.84
O=C(NO)c1ccc2ccccc2n1,waterLOGSY factor,[9],0.04
same,T2 signal reduction,[3],0.55
same,T2 signal reduction,[10],0.5
COc1ccc(NC(=O)CN)cc1,T2 signal reduction,[3],0.83
COC(=O)Nc1nc2c(C)cccc2s1,T2 signal reduction,[11],0.62
CNCc1ccc(C(F)(F)F)cc1,T2 signal reduction,[12],0.31
same,T2 signal reduction,[2],0.38
CNC(=O)c1nc2ccccc2c(=O)[nH]1,T2 signal reduction,[1],0.51
same,T2 signal reduction,[3],0.48
c1ccc(-c2ccc(-n3cnnn3)cc2)cc1,waterLOGSY factor,[13],7.53
same,waterLOGSY factor,[5],7.1
same,waterLOGSY factor,[7],4.53
same,T2 signal reduction,[14],0.39
Cc1c(Cl)cccc1NC(=O)CN.Cl,T2 signal reduction,[3],0.39
CNCc1cnn(-c2ccccc2)c1,T2 signal reduction,[3],0.51
same,T2 signal reduction,[6],0.42
CNC(=O)Nc1nc2ccc(OC)cc2s1,waterLOGSY factor,[5],0.477
same,waterLOGSY factor,[7],1.47
same,T2 signal reduction,[8],0.5
same,T2 signal reduction,[15],0.84
same,T2 signal reduction,[16],0.63
same,T2 signal reduction,[17],0.49
CN(C)c1ccc(C(=O)Nc2ccncc2)cc1,waterLOGSY factor,[5],1.21
same,waterLOGSY factor,[18],67.6
same,T2 signal reduction,[11],1
same,T2 signal reduction,[19],1
same,T2 signal reduction,[16],-0.95
same,T2 signal reduction,[17],0.86
same,T2 signal reduction,[6],0.91
Cc1ccccc1OCC(=O)Nc1ccccc1,waterLOGSY factor,[7],2.82
same,T2 signal reduction,[1],0.3
same,T2 signal reduction,[4],0.39
c1coc(CNc2nc3ccccc3[nH]2)c1,T2 signal reduction,[12],0.37
same,T2 signal reduction,[2],0.29
same,T2 signal reduction,[3],0.25

# Some of the entries so far, tab-delimited:
smiles	measurement	setting	value
c1ccc(NCC2CCNC2)nc1 (stereo not given)	waterLOGSY factor	[7]	2.48
c1ccc(-c2ccc(-n3cnnn3)cc2)cc1	waterLOGSY factor	[5]	7.1
same	T2 signal reduction	[14]	0.39
CNC(=O)Nc1nc2ccc(OC)cc2s1	waterLOGSY factor	[7]	1.47
